{
  "source": "PubChem BioAssay AID2685",
  "about": "(National Center for Advancing Translational Sciences (NCATS), 2010)",
  "assay": "qHTS Assay for Lipid Storage Modulators in Drosophila S3 Cells;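 on cell number change: cells counted by Cell Tracker Red CMTPX staining in the red channel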",
  "conditions": "BODIPY lipid droplet fluorescence, 18-24 h; for cell number change: measured here: cell count max response, cells fed with added oleic acid",
  "method_in_brief": "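Laser-scanning cytometry quantifies lipid droplet accumulation (500–530 nm total intensity; droplet/cell object ratio) in oleic acid-fed (400 uM added) Drosophila S3 cells treated with a concentration series. 20 uM Triacsin C defined 100% inhibition.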",
  "key": {"[1]": {"conditions": "measured here: lipid fluorescence (Fed channel) AC50, cells fed with added oleic acid"}, "[2]": {"conditions": "measured here: cell number channel AC50, cells fed with added oleic acid"}},
  "note": "This is one part of the list. The main result of the screen is listed elsewhere. These columns were measured beside it and carry no call. Compounds called inactive in the main read-out are mostly missing here. The note in brackets gives the kind of curve behind each potency; many fits are weak.",
  "data": [
    {"compound": "CCOC(=O)c1cc(-c2ccccc2)n(CCC(=O)O)c1C", "values": [
      {"measurement": "cell number change", "value": 19.8, "unit": "%"},
      {"measurement": "AC50", "setting": "[1]", "value": "29.1 µM [rising, single point]"}
    ]},
    {"compound": "Cc1c(NC(=O)c2c(NC(=O)CNC3CC3)sc3c2CCCC3)c(=O)n(-c2ccccc2)n1C", "values": [
      {"measurement": "cell number change", "value": 17.9, "unit": "%"},
      {"measurement": "AC50", "setting": "[1]", "value": "0.00411 µM [rising, full curve, poor fit]"}
    ]},
    {"compound": "Clc1ccccc1OCCn1cnc2ccccc21", "values": [
      {"measurement": "cell number change", "value": -30.1, "unit": "%"},
      {"measurement": "AC50", "setting": "[2]", "value": "16.4 µM [falling, partial curve]"}
    ]},
    {"compound": "O=C(c1cc2ccccc2[nH]1)N(Cc1cccnc1)CC1CCCN(C2CCCCC2)C1", "note": "(stereo not drawn)", "values": [
      {"measurement": "cell number change", "value": 1.65, "unit": "%"},
      {"measurement": "AC50", "setting": "[1]", "value": "2.91 µM [falling, single point]"}
    ]},
    {"compound": "C=CCn1c(SCc2cc(C(=O)OC)c(C)o2)nnc1-c1ccncc1", "values": [
      {"measurement": "cell number change", "value": 42.2, "unit": "%"},
      {"measurement": "AC50", "setting": "[2]", "value": "20.6 µM [rising, single point]"},
      {"measurement": "AC50", "setting": "[1]", "value": "1.03 µM [rising, full curve, poor fit]"}
    ]},
    {"compound": "Cc1nc(C(=O)NC(C)C)nn1-c1cc(Cl)cc(Cl)c1", "values": [
      {"measurement": "cell number change", "value": -25.1, "unit": "%"},
      {"measurement": "AC50", "setting": "[2]", "value": "1.64 µM [falling, single point]"}
    ]},
    {"compound": "CC(=O)Nc1ccc(S(=O)(=O)Nc2ccc3c(c2)OCCO3)cc1", "values": [
      {"measurement": "cell number change", "value": 22.9, "unit": "%"},
      {"measurement": "AC50", "setting": "[1]", "value": "0.00517 µM [falling, full curve, poor fit]"}
    ]},
    {"compound": "CCc1ccc(NC(=O)c2cc(-c3ccc(OC)cc3)on2)cc1", "values": [
      {"measurement": "cell number change", "value": 13.9, "unit": "%"},
      {"measurement": "AC50", "setting": "[1]", "value": "6.51 µM [falling, single point]"}
    ]},
    {"compound": "COC(=O)c1cc(C#N)c(Oc2ccc(OC)cc2)nc1C", "values": [
      {"measurement": "cell number change", "value": 104, "unit": "%"},
      {"measurement": "AC50", "setting": "[2]", "value": "18.4 µM [rising, single point]"},
      {"measurement": "AC50", "setting": "[1]", "value": "23.1 µM [rising, single point]"}
    ]},
    {"compound": "Cc1cccc(N(CC(=O)NC(C)(C)C)C(=O)CS(=O)CC(=O)Nc2ccc3c(c2)OCO3)c1", "note": "(stereo not drawn)", "values": [
      {"measurement": "cell number change", "value": 15.5, "unit": "%"},
      {"measurement": "AC50", "setting": "[1]", "value": "0.184 µM [rising, full curve, poor fit]"}
    ]},
    {"compound": "COc1ccc(OC)c(NC(=O)C2CCCNC2=O)c1", "note": "(stereo not drawn)", "values": [
      {"measurement": "cell number change", "value": 54.2, "unit": "%"},
      {"measurement": "AC50", "setting": "[2]", "value": "29.1 µM [rising, partial curve, poor fit]"},
      {"measurement": "AC50", "setting": "[1]", "value": "2.91 µM [rising, single point]"}
    ]},
    {"compound": "Cn1cc(CNC(=O)C2c3ccccc3Oc3ccccc32)cn1", "values": [
      {"measurement": "cell number change", "value": -2.87, "unit": "%"}
    ]},
    {"compound": "Cc1ccc(C(=O)c2oc3ccccc3c2NC(=O)c2cc(-c3cc(C)ccc3O)n[nH]2)cc1", "values": [
      {"measurement": "cell number change", "value": -18.4, "unit": "%"},
      {"measurement": "AC50", "setting": "[1]", "value": "23.1 µM [falling, single point]"}
    ]},
    {"compound": "CC(C)C[C@H](NC(=O)NCCC1=CCCCC1)C(=O)O", "values": [
      {"measurement": "cell number change", "value": 1.6, "unit": "%"},
      {"measurement": "AC50", "setting": "[2]", "value": "6.51 µM [falling, single point]"},
      {"measurement": "AC50", "setting": "[1]", "value": "0.0164 µM [rising, full curve, poor fit]"}
    ]},
    {"compound": "C/C(=N\\Nc1ncc(Cl)cc1Cl)c1cccs1", "values": [
      {"measurement": "cell number change", "value": -30.7, "unit": "%"},
      {"measurement": "AC50", "setting": "[1]", "value": "0.13 µM [falling, full curve, poor fit]"}
    ]}
  ]
}
